Measurements as given in patent US20230141177A1.
These are yes or no findings as the source states them, for the method shown. Some results given as binding are weak or reduced against the parent protein; the word gives no strength.

Sequences of proteins named here, by UniProt entry; tags and fusion partners are left off. A change or cut given only in a name is not applied to a line headed by its entry.
UniProt P02769: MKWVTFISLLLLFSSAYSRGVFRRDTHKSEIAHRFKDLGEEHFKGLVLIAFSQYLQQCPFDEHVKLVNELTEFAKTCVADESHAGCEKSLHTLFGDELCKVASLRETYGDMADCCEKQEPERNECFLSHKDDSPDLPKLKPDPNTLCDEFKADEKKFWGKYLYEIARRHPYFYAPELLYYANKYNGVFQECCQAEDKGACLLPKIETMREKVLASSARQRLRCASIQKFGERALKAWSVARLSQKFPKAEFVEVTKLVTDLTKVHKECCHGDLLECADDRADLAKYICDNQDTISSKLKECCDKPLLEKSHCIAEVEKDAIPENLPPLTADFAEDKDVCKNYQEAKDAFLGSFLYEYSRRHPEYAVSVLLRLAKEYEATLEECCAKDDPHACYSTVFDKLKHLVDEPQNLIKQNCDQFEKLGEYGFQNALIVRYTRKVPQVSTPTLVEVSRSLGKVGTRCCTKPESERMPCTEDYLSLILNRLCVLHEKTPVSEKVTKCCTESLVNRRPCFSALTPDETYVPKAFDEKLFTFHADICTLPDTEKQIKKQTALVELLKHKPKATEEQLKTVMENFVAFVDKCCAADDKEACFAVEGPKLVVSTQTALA

How the values were obtained:
[1] = target: linear (CGHHQKG) (SEQ ID NO: 2) peptide-BSA (UniProt P02769); assay: SPR single cycle kinetics; IgG4 in cell supernatant captured on Protein A chip; peptide-BSA injected at four rising concentrations, 0.025 to 0.675 nM [Cont.]
[2] = target: linear (CGHHQKG) (SEQ ID NO: 2) peptide-BSA (UniProt P02769); assay: SPR, purified IgG4 vs linear peptide-BSA
[3] = target: linear (CGHHQKG) (SEQ ID NO: 2) peptide-BSA (UniProt P02769); assay: SPR single cycle kinetics; IgG4 in cell supernatant captured on Protein A chip; peptide-BSA injected at four rising concentrations, 0.025 to 0.675 nM

Row | Binder | binding [1] | binding [2] | binding [3]
1 | parental antibody, PMN310 humanized antibody variant VH2/Vk5 (human IgG4 S241P / kappa) (antibody, V domains shown) VH: QVQLVQSGAEVKKPGASVKMSCKASGYSFTSYWINWVKQRPGQGLEWIGDVHPGRGVSTYNAKFKSRATLTLDTSISTAYMELSSLRSEDTAVYYCSRSHGNTYWFFDVWGQGTTVTVSS VL: DVLMTQSPLSLPVTLGQPASISCRSSQSIVHSNGNTYLEWYQQRPGQSPRLLIYKVSNRFSGVPDRFSGSGSGTDFTLKISRVEAEDVGVYYCFQGSHVPFTFGQGTKLEIKR | binds | binds | 
2 | Clone 18 (antibody, human IgG4 S228P, kappa, V domains shown) VH: QVQLVQSGAEVKKPGASVKMSCKASGYSFTSYWINWVKQRPGQGLEWIGDVHPGRGVSTYNAKFKSRATLTLDTSISTAYMELSSLRSEDTAVYYCSRSHGNSPAFFDVWGQGTTVTVSS VL: DVLMTQSPLSLPVTLGQPASISCRSSQSIVHSNGNTYLEWYQQRPGQSPRLLIYKVSNRFSGVPDRFSGSGSGTDFTLKISRVEAEDVGVYYCFQGSHVPFTFGQGTKLEIKR |  |  | binds

Other lines, results leading:

Row | binding [1] | binding [2] | binding [3] | Binder
3 | binds |  |  | Clone 16 (antibody, human IgG4 S228P, kappa, V domains shown) VH: QVQLVQSGAEVKKPGASVKMSCKASGYSFTSYWINWVKQRPGQGLEWIGDVHPGRGVSTYNAKFKSRATLTLDTSISTAYMELSSLRSEDTAVYYCSRSHGNTPWFLDDWGQGTTVTVSS VL: DVLMTQSPLSLPVTLGQPASISCRSSQSIVHSNGNTYLEWYQQRPGQSPRLLIYKVSNRFSGVPDRFSGSGSGTDFTLKISRVEAEDVGVYYCFQGSHVPFTFGQGTKLEIKR
4 | binds |  |  | Clone 6 (antibody, human IgG4 S228P, kappa, V domains shown) VH: QVQLVQSGAEVKKPGASVKMSCKASGYSFTSYWINWVKQRPGQGLEWIGDVHPGRGVSTYNAKFKSRATLTLDTSISTAYMELSSLRSEDTAVYYCSRSSPFNYWFFDVWGQGTTVTVSS VL: DVLMTQSPLSLPVTLGQPASISCRSSQSIVHSNGNTYLEWYQQRPGQSPRLLIYKVSNRFSGVPDRFSGSGSGTDFTLKISRVEAEDVGVYYCFQGSHVPFTFGQGTKLEIKR
5 | binds |  |  | Clone 7 (antibody, human IgG4 S228P, kappa, V domains shown) VH: QVQLVQSGAEVKKPGASVKMSCKASGYSFTSYWINWVKQRPGQGLEWIGDVHPGRGVSTYNAKFKSRATLTLDTSISTAYMELSSLRSEDTAVYYCARSPSSTYWFFDVWGQGTTVTVSS VL: DVLMTQSPLSLPVTLGQPASISCRSSQSIVHSNGNTYLEWYQQRPGQSPRLLIYKVSNRFSGVPDRFSGSGSGTDFTLKISRVEAEDVGVYYCFQGSHVPFTFGQGTKLEIKR
6 |  | binds | binds | Clone 5 (affinity matured VH with parental Vk, human IgG4 S241P / kappa) (antibody, V domains shown) VH: QVQLVQSGAEVKKPGASVKMSCKASGYSFTSYWINWVKQRPGQGLEWIGDVHPGRGVSTYNAKFKSRATLTLDTSISTAYMELSSLRSEDTAVYYCARGALSPYWFFDVWGQGTTVTVSS VL: DVLMTQSPLSLPVTLGQPASISCRSSQSIVHSNGNTYLEWYQQRPGQSPRLLIYKVSNRFSGVPDRFSGSGSGTDFTLKISRVEAEDVGVYYCFQGSHVPFTFGQGTKLEIKR
